For this experiment, the target named is GST-SEC62 (UniProt Q99442). Kind of experiment: pull-down; GST or GST-SEC62 on glutathione-Sepharose beads; 20 mM HEPES pH 7.5, 5 mM MgCl2, 0.5 mM EDTA, 0.05% NP40, 1 mM DTT, 130 mM KCl, 0.2 mg/ml BSA; 1 mg FLAG-SEMA6A-transfected cell lysate added, room temperature 1 h; immunoblot; only the target purified.

Amino acid sequences for entries named in this document (tags omitted). A change or cut given only in a name is not applied to a line headed by its entry.
UniProt Q99442: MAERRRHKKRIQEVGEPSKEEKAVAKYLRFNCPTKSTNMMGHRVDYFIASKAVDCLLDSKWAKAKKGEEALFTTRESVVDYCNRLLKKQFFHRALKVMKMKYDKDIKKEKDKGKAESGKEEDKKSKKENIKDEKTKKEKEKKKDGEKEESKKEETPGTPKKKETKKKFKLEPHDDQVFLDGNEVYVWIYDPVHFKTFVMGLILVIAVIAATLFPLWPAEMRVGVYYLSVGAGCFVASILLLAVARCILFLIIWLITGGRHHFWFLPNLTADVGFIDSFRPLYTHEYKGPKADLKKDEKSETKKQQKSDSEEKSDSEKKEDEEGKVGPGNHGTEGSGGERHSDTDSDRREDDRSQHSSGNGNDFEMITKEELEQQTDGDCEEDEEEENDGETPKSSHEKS

Results are given in words; binding and its absence hold for the method and conditions named. In cells and extracts the contact can be indirect. A result given as binding can be weak or reduced; the word gives no strength. Sequences can lack the tags named with a protein.

B1: FLAG-SEMA6A (protein, UniProt Q9H2E6 19-1030)
chain: GFPEDSEPISISHGNYTKQYPVFVGHKPGRNTTQRHRLDIQMIMIMNGTLYIAARDHIYTVDIDTSHTEEIYCSKKLTWKSRQADVDTCRMKGKHKDECHNFIKVLLKKNDDALFVCGTNAFNPSCRNYKMDTLEPFGDEFSGMARCPYDAKHANVALFADGKLYSATVTDFLAIDAVIYRSLGESPTLRTVKHDSKWLKEPYFVQAVDYGDYIYFFFREIAVEYNTMGKVVFPRVAQVCKNDMGGSQRVLEKQWTSFLKARLNCSVPGDSHFYFNILQAVTDVIRINGRDVVLATFSTPYNSIPGSAVCAYDMLDIASVFTGRFKEQKSPDSTWTPVPDERVPKPRPGCCAGSSSLERYATSNEFPDDTLNFIKTHPLMDEAVPSIFNRPWFLRTMVRYRLTKIAVDTAAGPYQNHTVVFLGSEKGIILKFLARIGNSGFLNDSLFLEEMSVYNSEKCSYDGVEDKRIMGMQLDRASSSLYVAFSTCVIKVPLGRCERHGKCKKTCIASRDPYCGWIKEGGACSHLSPNSRLTFEQDIERGNTDGLGDCHNSFVALNGHSSSLLPSTTTSDSTAQEGYESRGGMLDWKHLLDSPDSTDPLGAVSSHNHQDKKGVIRESYLKGHDQLVPVTLLAIAVILAFVMGAVFSGITVYCVCDHRRKDVAVVQRKEKELTHSRRGSMSSVTKLSGLFGDTQSKDPKPEAILTPLMHNGKLATPGNTAKMLIKADQHHLDLTALPTPESTPTLQQKRKPSRGSREWERNQNLINACTKDMPPMGSPVIPTDLPLRASPSHIPSVVVLPITQQGYQHEYVDQPKMSEVAQMALEDQAATLEYKTIKEHLSSKSPNHGVNLVENLDSLPPKVPQREASLGPPGASLSQTGLSKRLEMHHSSSYGVDYKRSYPTNSLTRSHQATTLKRNNTNSSNSSHLSRNQSFGRGDNPPPAPQRVDSIQVHSSQPSGQAVTVSRQPSLNAYNSLTRSGLKRTPSLKPDVPPKPSFAPLSTSMKPNDACT
In the case of B1, the binding result is “binds”.

For the origin of these results see publication PMC9899268.
